# Screen size: about 220,000 compounds; about 770 (0.35%) were called active. Inconclusive results, whose numbers are uncertain, are shown with a selection of clear calls. Rule as the data show it: active = binding response below about 49% or above about 150%; inconclusive = no clear call, values can overlap the other calls; inactive = in between.
# Chains of the proteins cited; added tags and fusions are not shown.
# UniProt P09471, whole entry, looked up: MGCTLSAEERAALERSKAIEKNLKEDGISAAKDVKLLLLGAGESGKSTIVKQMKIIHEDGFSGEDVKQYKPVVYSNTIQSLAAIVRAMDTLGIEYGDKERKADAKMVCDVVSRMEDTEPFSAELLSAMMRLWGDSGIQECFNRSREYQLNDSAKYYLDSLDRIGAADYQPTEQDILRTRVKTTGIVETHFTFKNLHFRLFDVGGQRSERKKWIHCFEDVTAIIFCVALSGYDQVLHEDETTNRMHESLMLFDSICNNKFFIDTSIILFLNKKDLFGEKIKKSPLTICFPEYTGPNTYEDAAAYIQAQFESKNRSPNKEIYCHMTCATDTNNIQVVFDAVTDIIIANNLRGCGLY
# Target: Guanine nucleotide-binding protein G(o) subunit alpha (Homo sapiens) (UniProt P09471)
# Test: RGS7-Galphao binding modulators, primary screen, biochemical, multiplexed bead flow cytometry (AID 1439);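 also: fluorescent Galphao held in activated GDP-AlF4 state binding bead-coupled RGS7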
# Conditions: at 10 µM, actives lie on both sides
row,SMILES,binding response (% of control)
1,CCOC(=O)/C(C)=N/Nc1nc(-c2ccc(NC(C)=O)cc2)cs1,inconclusive: 117%
2,CCc1cc2c(SCC(=O)NC3CCS(=O)(=O)C3)ncnc2s1 (configuration not stated),inconclusive: 101%
3,CCCC(=O)NNC(=O)CC(=O)Nc1ccccc1C(=O)O,inconclusive: 118%
4,CCOC(=O)C(=O)N1c2ccccc2C(N(C(=O)C(=O)OCC)c2ccccc2)CC1C (configuration not stated),inconclusive: 115%
5,COC(=O)c1ccc(COC(=O)CCS(=O)(=O)c2ccc(C)cc2)cc1,inconclusive: 105%
6,Cc1cc(C(=O)Nc2ccccc2N2CCOCC2)c(C)o1,inconclusive: 94.8%
7,Cc1nnsc1C(=O)N1CCN(c2ccc(C#N)cn2)CC1,inconclusive: 101%
8,CCOC(=O)c1ccc(NC(=O)NCc2ccccc2)cc1,inconclusive: 117%
9,COc1ccc(NS(=O)(=O)c2cccc(NC(=O)CNC(C)=O)c2)cc1,inconclusive: 106%
10,c1ccc(CSc2nnc3ccc(-c4ccncc4)nn23)nc1,inconclusive: 90.2%
11,Cc1ccc(C2C(C#N)=C(N)N(c3ncn[nH]3)C3=C2C(=O)CC(C)(C)C3)cc1 (configuration not stated),inactive: 93.7%
12,Cc1c(Br)c(C(F)(F)F)nn1CC(=O)NCc1ccccc1,inactive: 110%
13,CCN(CC)S(=O)(=O)c1cccc(NC(=O)CNC2CCCCCC2)c1,inconclusive: 87.1%
14,CCSc1nnc(NC(=O)[C@@H](NC(=O)c2cc(OC)cc(OC)c2)C(C)C)s1,inconclusive: 97.7%
15,C[C@@H](Oc1ccccc1)c1nnn(Cc2ccccc2)c1-c1c([C@@H](C)Oc2ccccc2)nnn1Cc1ccccc1,inconclusive: 113%
16,Oc1ccc(-c2nnc(Nc3cccc(O)c3)c3ccccc23)cc1,inconclusive: 211%
17,NC(=O)CC(NC(=O)Cc1ccc(Br)cc1)c1ccc(NCCc2ccccc2F)c([N+](=O)[O-])c1 (configuration not stated),inconclusive: 95.4%
18,Oc1ccccc1-c1nc2ccccc2nc1-c1ccccc1,inconclusive: 84.6%
19,COCCCN(CC(=O)O)S(=O)(=O)c1cccc(Cl)c1,inconclusive: 91.7%
20,Cc1[nH]c2ccccc2c1/C=N/Nc1nc2ccccc2[nH]1,inconclusive: 88.8%
21,O=C(NCCC1=CCCCC1)c1ccc(Cl)cc1,inactive: 101%
22,O=S(=O)(NCc1cn2ccccc2n1)c1cccs1,inconclusive: 56.9%
23,Cc1onc(-c2c(F)cccc2Cl)c1C(=O)N1CCOC12CCCCC2,inactive: 97%

row,SMILES,binding response (% of control)
1,Cc1cc(NC(=O)c2c(C)noc2C)no1,inconclusive: 85.6%
2,O=C(CN1C2=NCCCN2c2ccccc21)c1ccc([N+](=O)[O-])cc1,inactive: 112%
3,c1ccc(Cn2c[n+](Cc3ccccc3)cn2)cc1,inconclusive: 83.3%
4,O=[N+]([O-])c1cccc2c(N3CCCC3)ccnc12,inconclusive: 99.8%
5,Cc1ccc(S(=O)(=O)N(C)C)cc1NC(=O)c1cccnc1Oc1ccccc1,inconclusive: 215%
6,COCc1cc(OC)nc(-c2csc(C)n2)n1,inconclusive: 44.3%
7,N#Cc1c(-c2ccncc2)c2c([nH]c1=O)-c1ccccc1OC2,inconclusive: 102%
8,COc1ccc(CCNC(=S)N(C)C)cc1OC,inconclusive: 135%
9,Nc1nnc(-c2ccc(Cl)c(Cl)c2)s1,inconclusive: 72.9%
10,CCOC(=O)c1ccc(NC(=O)COc2cc3oc(=O)c(CC(C)O)c(C)c3cc2Cl)cc1 (configuration not stated),inconclusive: 72.5%
11,CCC(=O)Nc1cc(C(=O)O)ccc1Sc1ccc(Cl)cc1,inactive: 102%
12,Cc1nn(C)c(Oc2ccccc2)c1CCNC(=O)CC(C)C,inconclusive: 88.5%
13,CCC(=O)c1c(NC(C)C)cc(C)oc1=O,inconclusive: 103%
14,CC1(C)C2CCC(C2)C1(C)N=C1OC(CCl)CS1 (configuration not stated),inconclusive: 96.5%
15,O=C(COC(=O)c1cnc(Cl)c(Cl)c1)NCCC1=CCCCC1,inconclusive: 102%
16,CCCCC(CCC(=O)O)(C(=O)OCC)c1csc(Nc2ccc(C)cc2)n1 (configuration not stated),active: -15.9%
17,O=C(NCCc1ccccc1)Oc1ccc(Cl)cc1,inconclusive: 107%
18,CCOC(=O)C(NC(C)=O)(Nc1ccc(F)cc1)C(F)(F)F (configuration not stated),active: 205% [activator]
19,CC(C)NC(=O)N1CCCN(c2nc3ccc(Cl)cc3s2)CC1,inconclusive: 198%
20,CC(=O)N(C1=C(N2CCOCC2)C(=O)c2ccccc2C1=O)c1ccc(C(=O)O)cc1,inconclusive: 104%
21,O=C(CSc1ccccc1)N1CCN(C(=O)c2ccco2)CC1,inconclusive: 120%
22,COc1ccc(NC(=O)Cn2cnc3c(oc4nc5c(cc43)COC(C)(C)C5)c2=O)cc1,inconclusive: 93.8%
23,O=[N+]([O-])c1ccc(C2=Nn3cnnc3SC2)cc1,inconclusive: 116%

row,SMILES,binding response (% of control)
1,Cc1cc(N2CC(C)OC(C)C2)nc2ccccc12 (configuration not stated),inconclusive: 110%
2,CCCCNC(=O)CSc1nc2ccsc2c(=O)n1CCCC(=O)NCCc1ccc(S(N)(=O)=O)cc1,inactive: 104%
3,S=C(Nc1ccc(Cl)cc1)N(CCCN1CCOCC1)Cc1cccs1,inconclusive: 105%
4,COC(=O)CCCC1=CC2=C(c3ccccc3)C(=O)C(C)(OC(=O)C3CCCC3)C(=O)C2=CN1c1ccccc1 (configuration not stated),inconclusive: 91.5%
5,N#C/C(=C\c1cccnc1)C(=O)NC1CCCCC1,inactive: 98.2%
6,O=C(Nc1cccc(-c2nc3cccnc3s2)c1)c1cccnc1Cl,inconclusive: 27.8%
7,COc1ccc(C)c2sc(=NC(=O)c3cccc(N4C(=O)CCC4=O)c3)n(C)c12,inconclusive: 90.8%
8,COc1cc(/C=C2\SC(=S)N(N3CCOCC3)C2=O)ccc1O,inconclusive: 114%
9,CCOC(=O)Cc1cc(-c2ccc(O)cc2)nc2ccc3ccccc3c12,inactive: 95.3%
10,O=C(NCCN1CCOCC1)c1ccc(N2CCCC2)c([N+](=O)[O-])c1,inconclusive: 118%
11,CCN1C(=O)C(CC(=O)Nc2ccc(OC)cc2)N(CCc2ccc(F)cc2)C1=S (configuration not stated),inconclusive: 110%
12,Cc1cc(C)c(C#N)c(SCCS(=O)(=O)c2ccc(Cl)cc2)n1,inconclusive: 62.4%
13,Cc1cc(/C=C(\C#N)C(=O)O)c(C)n1-c1ccc(Br)cc1,inconclusive: 85.1%
14,Cn1c2c(c(=O)n(C)c1=O)NC1(N2)C(=O)Nc2ccccc21 (configuration not stated),inconclusive: 43.6%
15,COC(=O)c1ccc2c(c1)NC(=O)C(N(CC(C)C)CC(C)C)S2 (configuration not stated),inconclusive: 93.7%
16,Nc1ccc(CSc2ccc(Cl)cc2)cc1,inconclusive: 103%
17,O=C1c2ccccc2C(=O)N1n1cccc1,inactive: 106%
18,O=C(CSc1ccc2ccccc2c1)N1CCN(c2ccc(O)cc2)CC1,inconclusive: 130%
19,CCOC(=O)Cc1csc(NC(=O)CSc2nnc(-c3ccc(C)cc3)o2)n1,inactive: 98.3%
20,CNC(=O)Cn1c(C)cc(=O)c2cccc(OC)c21,inconclusive: 132%
21,Cc1cc2c(NC(=O)Nc3ccccc3)cccc2nn1,inconclusive: 97.2%
22,COC(=O)c1ccc(NC(=O)CSc2nc3ncccc3[nH]2)cc1,inconclusive: 407%
23,CCN1CCCC(OC(=O)c2cc(-c3ccc(C)cc3)nc3ccccc23)C1 (configuration not stated),inconclusive: 98.9%

# Of the compounds above, three have bromine.
row,SMILES,binding response (% of control)
12,Cc1c(Br)c(C(F)(F)F)nn1CC(=O)NCc1ccccc1,inactive: 110%
17,NC(=O)CC(NC(=O)Cc1ccc(Br)cc1)c1ccc(NCCc2ccccc2F)c([N+](=O)[O-])c1 (configuration not stated),inconclusive: 95.4%
13,Cc1cc(/C=C(\C#N)C(=O)O)c(C)n1-c1ccc(Br)cc1,inconclusive: 85.1%

# Carrying on.

row,SMILES,binding response (% of control)
1,Cc1ccc(N2C(N)=C(C#N)C(c3cccs3)C3=C2CC(C)(C)CC3=O)cc1 (configuration not stated),inactive: 121%
2,CCOC(=O)c1ccc(NC(=O)c2nc[nH]c2C(=O)N2CCc3ccccc3C2)cc1,inconclusive: 96.5%
3,Cc1ccc(OCC(=O)N2N=C(c3ccncc3)CC2(O)C(F)(F)F)cc1C (configuration not stated),inconclusive: 107%
4,Cc1cc(C)cc(C(=O)NCC(=O)OCC(=O)Nc2cccnc2Cl)c1,inconclusive: 91.6%
5,CC1(C)C=Cc2c(c3ccccc3[nH]c2=O)O1,inactive: 102%
6,COc1ccc(CN2CN(S(=O)(=O)c3ccccc3)c3nc4ccccc4nc32)cc1,inconclusive: 445%
7,COc1cccc(C2=NOC(C(=O)Nc3cc(C)on3)C2)c1 (configuration not stated),inconclusive: 100%
8,CCOC(=O)C(=O)N/N=C/c1ccc(F)cc1,inconclusive: 515%
9,CCn1c(C)nc2cc(C(=O)N/N=C/c3cccc(O)c3O)ccc21,inactive: 86.8%
10,S=c1[nH]cnc2sc(Nc3ccccc3)nc12,inconclusive: 49.8%
11,CN(C)CCCNCC(=O)NN(c1ccccc1)c1ccccc1,inconclusive: 106%
12,c1cc2c3c(cccc3c1)C(N1CCOCC1)=N2,inconclusive: 88%
13,O=c1cc(CN2CCN(c3ccccc3O)CC2)nc2sccn12,inactive: 91.3%
14,Cc1cc2nc3n(c2cc1C)CC1CC(C(=O)NCC2CC2)N(C)C31 (configuration not stated),inconclusive: 117%
15,O=C(O)C(C/C(=N/O)c1ccc(Br)cc1)P(=O)(c1ccccc1)c1ccccc1 (configuration not stated),inconclusive: 27%
16,Cc1ccc(C(=O)N2CCN(S(=O)(=O)c3ccc(C)c([N+](=O)[O-])c3)C2)cc1,inconclusive: 111%
17,O=C(C1CCC(CNS(=O)(=O)c2cccc3nsnc23)CC1)N1CCN(c2ccccn2)CC1 (configuration not stated),inactive: 100%
18,CCC(CNc1cc(OC)cc2cccnc12)NC1CCCCC1 (configuration not stated),inconclusive: 35.2%
19,CC(C)(C)c1ccc(-c2nc(C#N)c(NCCCn3ccnc3)o2)cc1,inconclusive: 106%
20,O=C(CNC(=S)N(Cc1ccccc1Cl)C1CCCC1)NCCN1CCOCC1,inactive: 99.7%
21,Cc1cc(C)c(Nc2ncnc(N)n2)c(C)c1,inconclusive: 142%
22,Cc1ccc(/C=N/N2CCN(c3ccccc3)CC2)cc1,inconclusive: 119%
23,Cc1ccc(Nc2nc(NCc3ccco3)c3ccccc3n2)cc1,inactive: 89.6%

# From PubChem BioAssay AID1439 (NMMLSC, 2008)
